Experimental findings from patent US20100015154A1 are described below.

This experiment has as its target T1, Peptide 2a (human).
T1 sequence (peptide): RKGVYVPYTQGKWEGE
Briefly: solid-phase anti-peptide ELISA (FIG. 13).

Results are given in words; binding and its absence hold for the method and conditions named. Some entries that bind do so weakly or less than the wild type.

B1: monoclonal antibody M2 1003 (antibody, V domains shown)
VH: SGAELVRPGASVKMSCKASGYTFTTYTMHWVKQTPGQGLEWIGAIYPGNGGTSYNQKFKGMATLTVDTSSSTAYMQISSLTSEDSAVYFCARGGDKYGMDYWGQGTTVTVSS
VL: DIQMTQSPSSLAVSAGEKVTMSCKSSQSLLNSRTRKNYLAWYQQKPGQSPKLLIYWASTRESGVPDRFTGSGSGTDFTLTISSVQAEDLAVYYCKQSYILPTFGGGTKLEIKR
On to B1, for which the binding result is “binds”.
